In the experiment the test system is HEK293A TEAD-LUC reporter. Description: TEAD-luciferase reporter activity (YAP activation), robust Z score vs plate; higher = stronger YAP/TEAD activation. The following applies: 24 h.

Molecules are shown by their SMILES. Counter-ions that a name gives are not always drawn. The list shows a part of the results. Repeats in this data set agree poorly, so a single value says little.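 In a drug-repurposing library screen, luminescence reads luciferase driven by eight TEAD-binding elements, stably integrated into human kidney-derived cells. Compounds scoring over five robust Z scores above the plate mean are called hits.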

27 molecules from the supplement of paper PMC10735217 can be followed below.

For `CCC(=O)Nc1nnc(S(N)(=O)=O)s1`, the TEAD-luciferase reporter activity runs as follows: (compound concentration: 200 nM) inactive: -0.843; (compound concentration: 2 uM) inactive: -0.592; (compound concentration: 10 uM) inactive: 0.285.
Consider `Cc1ccc(C(=O)N2CCC3(CC2)NC(=O)c2ccccc2O3)cc1`, for which the TEAD-luciferase reporter activity (compound concentration: 200 nM) is inactive: -0.79 and the TEAD-luciferase reporter activity (compound concentration: 10 uM) was inactive: -1.06.
With `CCN1CC2CN(C)CC(C1)C2OC(=O)c1ccc(Cl)cc1` (stereo not given), the TEAD-luciferase reporter activity was inactive: 0.533 (compound concentration: 200 nM), inactive: -0.62 (compound concentration: 2 uM) and active: 8.03 (compound concentration: 10 uM).
On the same counts, the results for `Nc1ncc(-c2ccncc2)nc1Nc1ccc2[nH]ccc2c1` are inactive: 0.53, inactive: -0.468 and inactive: -0.492.
With `C[N+](C)([O-])CCC=C1c2ccccc2CCc2ccccc21` [Amitriptylinoxide], the TEAD-luciferase reporter activity runs as follows: (compound concentration: 200 nM) inactive: -0.515; (compound concentration: 2 uM) inactive: -0.275; (compound concentration: 10 uM) inactive: 1.03.
On the same counts, the results for `CN1CCN(c2c(F)cc3c(=O)c(C(=O)O)cn(CCF)c3c2F)CC1` [fleroxacin] are inactive: -0.608, inactive: -0.945 and inactive: 0.767.
On to `O=C(O)CCc1cc(I)c(Oc2ccc(O)cc2)c(I)c1`, for which the TEAD-luciferase reporter activity is inactive: -2.21 (compound concentration: 200 nM), inactive: -0.389 (compound concentration: 2 uM) and inactive: -0.187 (compound concentration: 10 uM).
With `CC1(C)N=C(N)N=C(N)N1c1ccc(Cl)cc1` [Cycloguanil (hydrochloride)], the TEAD-luciferase reporter activity by setting is: (compound concentration: 200 nM) inactive: -0.0965; (compound concentration: 10 uM) inactive: -0.722.
Turning to `CC1(C)N=C(N)N=C(N)N1c1ccc(Cl)cc1`, where the note is “compound concentration: 2 uM”, the TEAD-luciferase reporter activity was inactive: -0.252.
On to `COC(OC)[C@@]1(C)Oc2ccc(N)cc2[C@@H](N/C(=N/C#N)NCc2ccccc2)[C@@H]1O`, for which the TEAD-luciferase reporter activity runs as follows: (compound concentration: 200 nM) inactive: -1.04; (compound concentration: 2 uM) inactive: -0.692; (compound concentration: 10 uM) inactive: 1.4.
Turning to `Cc1ccc(C(=O)NC2CCN(c3nc4ncccc4o3)CC2)cc1`, the TEAD-luciferase reporter activity runs as follows: (compound concentration: 200 nM) inactive: -1.38; (compound concentration: 10 uM) inactive: 0.649.
For `CC(C)(Sc1cc(C(C)(C)C)c(O)c(C(C)(C)C)c1)Sc1cc(C(C)(C)C)c(OCC(=O)O)c(C(C)(C)C)c1`, the TEAD-luciferase reporter activity is, setting by setting: (compound concentration: 200 nM) inactive: 4.03; (compound concentration: 2 uM) inactive: -1.1; (compound concentration: 10 uM) inactive: -0.584.
The like results for `O=S(=O)([O-])Oc1ccc(C(c2ccc(OS(=O)(=O)[O-])cc2)c2ccccn2)cc1` [Sodium picosulfate] were, in that order, inactive: -1.13, inactive: 0.375 and inactive: -0.144.
Take `C#Cc1ccc(-c2ccccc2F)cc1`: the TEAD-luciferase reporter activity was inactive: 0.499 (compound concentration: 200 nM), inactive: -0.683 (compound concentration: 2 uM) and inactive: -0.766 (compound concentration: 10 uM).
Regarding `O=P(O)(O)C(CCCc1cccc(Oc2ccccc2)c1)S(=O)(=O)O` (stereo not given), the TEAD-luciferase reporter activity by setting is: (compound concentration: 200 nM) inactive: -1.32; (compound concentration: 2 uM) inactive: -1.04; (compound concentration: 10 uM) inactive: -0.235.
Regarding `CC(=O)[C@@]1(O)CC[C@H]2[C@@H]3C[C@H](C)C4=CC(=O)CC[C@]4(C)[C@H]3CC[C@@]21C`, the TEAD-luciferase reporter activity is inactive: 0.0479 (compound concentration: 200 nM) and inactive: 2.26 (compound concentration: 10 uM).
With `CC(=O)[C@@]1(O)CC[C@H]2[C@@H]3C[C@H](C)C4=CC(=O)CC[C@]4(C)[C@H]3CC[C@@]21C` [medroxyprogesterone, Inkine], the TEAD-luciferase reporter activity (compound concentration: 2 uM) was inactive: -0.514.
For the molecule `CN1C(=O)c2c(nn(Cc3ccc(-c4cccc(F)n4)cc3)c2Nc2ccccc2)N2C1=N[C@@H]1CCC[C@@H]12`, the TEAD-luciferase reporter activity (compound concentration: 200 nM) was inactive: -0.488, the TEAD-luciferase reporter activity (compound concentration: 2 uM) was inactive: -0.232 and the TEAD-luciferase reporter activity (compound concentration: 10 uM) was inactive: 1.52.
As to `COc1cc(CC(=O)NCCCc2ccc(C)c(C)c2)ccc1OCCN` [Davasaicin], the TEAD-luciferase reporter activity runs as follows: (compound concentration: 200 nM) inactive: -0.378; (compound concentration: 2 uM) inactive: -1.54; (compound concentration: 10 uM) inactive: 1.5.
As for `COc1cc(/C=C/C2=C(C(=O)[O-])N3C(=O)C(NC(=O)/C(=N/O)c4csc(N)n4)[C@@H]3SC2)on1` (stereo not given in full), the TEAD-luciferase reporter activity (compound concentration: 200 nM) was inactive: -0.912, the TEAD-luciferase reporter activity (compound concentration: 2 uM) is inactive: 0.46 and the TEAD-luciferase reporter activity (compound concentration: 10 uM) was inactive: 2.23.
The like results for `Nc1cc(C(F)(F)F)c(-c2nc(N3CCOCC3)nc(N3CCOCC3)n2)cn1` were, in that order, inactive: 0.401, inactive: -1.34 and inactive: -1.27.
On the same counts, the results for `Cc1c(C)c2ccc(OCc3nnc(C(C)C)s3)cc2oc1=O` [Atibeprone] are inactive: -0.773, inactive: -0.161 and inactive: 2.16.
On the same counts, the results for `Nn1cnc2cc3ccccc3cc2c1=O` [Centazolone] are inactive: 0.945, inactive: 0.413 and inactive: -1.24.
`NS(=O)(=O)c1cc2c(cc1Cl)NC(CC1CCCC1)NS2(=O)=O` (stereo not given) [Cyclopenthiazide]: the TEAD-luciferase reporter activity (compound concentration: 200 nM) was inactive: -1.18, the TEAD-luciferase reporter activity (compound concentration: 2 uM) is inactive: 0.176 and the TEAD-luciferase reporter activity (compound concentration: 10 uM) was inactive: 2.88.
`NS(=O)(=O)c1cc2c(cc1C(F)(F)F)NC(Cc1ccccc1)NS2(=O)=O` (stereo not given) [Bendrofluazide]: the TEAD-luciferase reporter activity by setting is: (compound concentration: 200 nM) inactive: -0.565; (compound concentration: 10 uM) inactive: 4.14.
Consider `NS(=O)(=O)c1cc2c(cc1C(F)(F)F)NC(Cc1ccccc1)NS2(=O)=O` (stereo not given) [bendroflumethiazide], for which the TEAD-luciferase reporter activity (compound concentration: 2 uM) was inactive: -0.3.
As to `C1COC(NC(C2CC2)C2CC2)=N1` [rilmenidine], the TEAD-luciferase reporter activity was inactive: -1.25 (compound concentration: 200 nM), inactive: 0.623 (compound concentration: 2 uM) and inactive: 0.931 (compound concentration: 10 uM).
